One series concerns the target PDGFRα (Homo sapiens, UniProt P16234). Nature of the series: Caliper biochemical assay, PDGFRα. As to conditions: read-out: PDGFRα Biochemical Avg IC50, Table 6.
The nature of a further series: Kinetic solubility assay. Particulars: 50 mM PB (pH 7.4), shaken 24 hours at RT.
For a further series, the target named is CSF-1R (Homo sapiens, UniProt P07333). Nature of the series: Caliper biochemical assay, CSF-1R. As to conditions: read-out: CSF-1R Biochemical IC50, Table 6.
The target in the next series is wtKIT (Homo sapiens, UniProt P10721). Put plainly: Caliper biochemical assay, wtKIT. Particulars: read-out: KIT Biochemical IC50 avg, Table 6.

The chains behind the UniProt entries cited, without tags or fusion partners. Residues count along the entry.
UniProt P16234, 24-1089 limits assumed: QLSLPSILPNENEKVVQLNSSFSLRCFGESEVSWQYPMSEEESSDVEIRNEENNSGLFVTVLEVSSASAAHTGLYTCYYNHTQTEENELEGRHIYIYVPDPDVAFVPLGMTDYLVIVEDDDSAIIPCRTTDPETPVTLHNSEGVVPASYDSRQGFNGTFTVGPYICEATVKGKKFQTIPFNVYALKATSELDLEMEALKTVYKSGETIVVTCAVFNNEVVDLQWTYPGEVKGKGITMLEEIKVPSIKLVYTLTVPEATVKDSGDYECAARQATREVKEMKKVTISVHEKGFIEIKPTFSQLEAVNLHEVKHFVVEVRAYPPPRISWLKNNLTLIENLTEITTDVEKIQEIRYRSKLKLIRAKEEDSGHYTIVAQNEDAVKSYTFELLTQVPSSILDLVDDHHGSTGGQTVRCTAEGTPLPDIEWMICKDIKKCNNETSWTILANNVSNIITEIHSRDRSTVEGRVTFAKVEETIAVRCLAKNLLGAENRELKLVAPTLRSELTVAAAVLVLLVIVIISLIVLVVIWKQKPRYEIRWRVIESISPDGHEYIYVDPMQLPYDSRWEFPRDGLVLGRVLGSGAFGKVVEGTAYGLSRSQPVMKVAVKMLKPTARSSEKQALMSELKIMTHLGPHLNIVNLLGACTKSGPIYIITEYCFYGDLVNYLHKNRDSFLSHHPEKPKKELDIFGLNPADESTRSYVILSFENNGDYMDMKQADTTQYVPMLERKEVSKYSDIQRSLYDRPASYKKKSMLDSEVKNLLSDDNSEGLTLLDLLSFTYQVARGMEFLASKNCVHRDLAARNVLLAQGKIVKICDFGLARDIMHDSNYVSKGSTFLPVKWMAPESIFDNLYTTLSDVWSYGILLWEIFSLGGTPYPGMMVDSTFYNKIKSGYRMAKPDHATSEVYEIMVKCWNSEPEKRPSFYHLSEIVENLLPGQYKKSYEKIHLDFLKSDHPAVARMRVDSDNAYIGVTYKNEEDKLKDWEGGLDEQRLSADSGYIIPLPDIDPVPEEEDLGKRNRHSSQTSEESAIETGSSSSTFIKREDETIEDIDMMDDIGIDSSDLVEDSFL
UniProt P07333, 20-972 limits assumed: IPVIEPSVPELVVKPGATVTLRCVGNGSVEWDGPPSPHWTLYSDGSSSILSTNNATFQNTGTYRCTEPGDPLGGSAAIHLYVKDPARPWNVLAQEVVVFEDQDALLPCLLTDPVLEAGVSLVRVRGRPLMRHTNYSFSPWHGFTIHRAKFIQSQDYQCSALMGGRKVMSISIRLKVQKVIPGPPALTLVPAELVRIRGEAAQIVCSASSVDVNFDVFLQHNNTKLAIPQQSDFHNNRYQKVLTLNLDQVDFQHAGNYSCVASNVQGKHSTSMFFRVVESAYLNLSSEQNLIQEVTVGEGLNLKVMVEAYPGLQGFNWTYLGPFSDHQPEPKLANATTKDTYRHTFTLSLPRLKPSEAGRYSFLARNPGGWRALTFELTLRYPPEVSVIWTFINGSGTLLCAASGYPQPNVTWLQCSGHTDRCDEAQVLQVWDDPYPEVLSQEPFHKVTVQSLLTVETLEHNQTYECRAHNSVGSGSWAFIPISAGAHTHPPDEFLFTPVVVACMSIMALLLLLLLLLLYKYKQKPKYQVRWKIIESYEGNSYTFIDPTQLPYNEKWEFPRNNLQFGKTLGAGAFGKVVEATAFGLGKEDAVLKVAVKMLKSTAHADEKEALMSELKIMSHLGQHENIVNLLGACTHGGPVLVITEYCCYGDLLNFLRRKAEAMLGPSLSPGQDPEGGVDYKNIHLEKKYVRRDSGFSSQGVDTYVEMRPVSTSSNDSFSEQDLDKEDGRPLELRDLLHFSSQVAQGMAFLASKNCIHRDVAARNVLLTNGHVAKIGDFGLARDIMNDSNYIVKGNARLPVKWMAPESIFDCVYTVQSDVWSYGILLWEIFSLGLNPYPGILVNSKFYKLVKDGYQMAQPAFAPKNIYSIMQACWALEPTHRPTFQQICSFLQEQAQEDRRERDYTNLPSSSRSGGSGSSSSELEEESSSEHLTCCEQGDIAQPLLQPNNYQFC
UniProt P10721, 26-976 limits assumed: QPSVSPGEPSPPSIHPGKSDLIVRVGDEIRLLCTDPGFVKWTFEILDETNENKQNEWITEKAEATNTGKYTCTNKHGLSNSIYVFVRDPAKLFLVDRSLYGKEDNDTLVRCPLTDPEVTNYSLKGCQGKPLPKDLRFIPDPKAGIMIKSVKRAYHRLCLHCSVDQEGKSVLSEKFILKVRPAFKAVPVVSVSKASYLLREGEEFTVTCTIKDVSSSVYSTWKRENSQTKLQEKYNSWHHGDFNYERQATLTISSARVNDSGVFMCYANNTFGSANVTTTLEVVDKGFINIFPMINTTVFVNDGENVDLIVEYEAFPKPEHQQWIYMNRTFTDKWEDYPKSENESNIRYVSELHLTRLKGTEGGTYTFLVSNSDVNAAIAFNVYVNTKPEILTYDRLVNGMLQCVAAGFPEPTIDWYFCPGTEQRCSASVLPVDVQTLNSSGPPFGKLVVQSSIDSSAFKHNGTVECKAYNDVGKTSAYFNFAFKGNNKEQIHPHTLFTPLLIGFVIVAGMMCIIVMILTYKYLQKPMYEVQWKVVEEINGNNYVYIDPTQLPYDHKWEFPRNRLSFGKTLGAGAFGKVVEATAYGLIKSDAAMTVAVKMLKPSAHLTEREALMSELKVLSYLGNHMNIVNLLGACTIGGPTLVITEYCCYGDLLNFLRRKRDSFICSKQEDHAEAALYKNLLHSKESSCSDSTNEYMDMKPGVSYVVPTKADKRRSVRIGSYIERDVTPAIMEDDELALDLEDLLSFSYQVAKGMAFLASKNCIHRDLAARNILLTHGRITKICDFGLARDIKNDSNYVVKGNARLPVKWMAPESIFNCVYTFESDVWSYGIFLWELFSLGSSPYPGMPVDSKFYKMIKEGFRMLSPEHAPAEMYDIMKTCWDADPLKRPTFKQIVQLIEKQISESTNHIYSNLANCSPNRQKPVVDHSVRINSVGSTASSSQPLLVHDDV

Experimental findings from patent publication US20240254119A1 (THIRD HARMONIC BIO, INC., priority 2022, published 2024) are described below.

Molecules are shown by their SMILES. Structures were worked out from names or drawings and are uncertain.

In general, IC50 refers to the concentration that gives 50% inhibition.

For `COC(=O)N1CC(c2nc(-c3ccc(OC)c(NC(=O)c4cnc5ccccn45)c3)no2)C1`, the IC50 on PDGFRα was 5 to 30 µM; on CSF-1R, 0.5 to 5 µM; at wtKIT, 0.05 to 0.5 µM. Besides, in the series “Kinetic solubility assay”, the “Solubility (μM)” value was “*** (a solubility greater than 2 μM and less than or equal to 10 μM)”.
